Screen size: about 140,000 compounds; about 4,300 (3.1%) were called active. The shares of active, inactive and inconclusive entries below differ from those in the screen.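 The calls were made as follows: active = readout at or below -70, meaning at least 70% loss of cells showing the perinucleolar compartment, a nuclear body marking cancer cells; inconclusive = readout between -30 and a set limit; inactive = the rest.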
Assay: High Content Assay for Compounds that inhibit the Assembly of the Perinucleolar Compartment;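 also: plate controls were DMSO wells for no effect and camptothecin positive control wells for full effect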
Details: PC3M PTB-GFP, PNC prevalence imaging, 16 h; at 10 µM; active compounds read low
Summary of the method: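 Read-out is percentage of cells bearing a perinucleolar compartment, from automated 20x imaging of fixed, Hoechst-stained PC3M PTB-GFP cells. Cells were seeded 4 h, then exposed 16 h to compound (23 nl of library stock) in duplicate plates.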

Structure (SMILES)	activity change (PNC), negative = inhibition
O=C(Nc1ccccc1N1CCN(c2ccc(F)cc2)CC1)c1ccccc1	inconclusive: -46.4%
O=C(COC(=O)c1ccc(S(=O)(=O)N2CCCC2)cc1)NCc1ccccc1	inactive: 8.23%
COc1ccc(CCNC(=O)c2cc(-c3cccs3)on2)cc1OC	inconclusive: -42.2%
Fc1ccccc1-c1ccc(/C=N/Nc2nc3ccccc3[nH]2)o1	inactive: 32%
COc1cc(NS(C)(=O)=O)c(OC)cc1NC(=O)c1ccccc1	inconclusive: -33.7%
Cc1ccc(S(=O)(=O)NCCCN2CCOCC2)cc1C	inactive: -25.9%
COc1ccc(N(C(=O)CCl)C(C)(C(=O)Nc2c(C)cccc2C)c2ccccn2)cc1 (configuration not stated)	inactive: -5.36%
CC(C)(C)NC(=O)CSc1nnc(-c2ccncc2)o1	inconclusive: -40%
CCn1cnc2sc(C(=O)N(Cc3ccc(N(C)C)cc3)Cc3ccco3)c(C)c2c1=O	inconclusive: -49.5%
CCOC(=O)c1ccc(-n2c(C)nc3c(cnn3-c3ccccc3Cl)c2=O)cc1	active: -113%
COc1ccc(NC(=O)C2CCCN(S(=O)(=O)c3cccc4nonc34)C2)cc1 (configuration not stated)	inactive: -1.14%
Cc1ccc(-n2nnnc2SCC(=O)N2CC(=O)Nc3ccccc32)cc1	inconclusive: -33.3%
CCOC(=O)c1[nH]c(C)c(C(=O)N2CCN(C(=O)c3ccco3)CC2)c1C	active: -100%
CCn1c(-c2cccc(Cl)c2)n[nH]c1=S	inconclusive: -38.8%
COc1ccc(C2c3sc(=O)[nH]c3SC3C4CCC(C4)C23)cc1OC (configuration not stated)	inactive: 76.4%
O=C(CN1CCOCC1)Nc1ncc(Cc2cccc3ccccc23)s1	inconclusive: -58.9%
CC(C(=O)NCC1CCCO1)N(C(=O)c1snc(C(N)=O)c1N)c1ccccc1 (configuration not stated)	inconclusive: -55.1%
O=C(CN1c2cccc3cccc(c23)S1(=O)=O)Nc1ccc(S(=O)(=O)N2CCOCC2)cc1	inconclusive: -65.9%
CCn1nnc(NC(=O)C(C)Oc2ccc(Cl)cc2Cl)n1 (configuration not stated)	inconclusive: -33.3%
CCCSC(=S)NC1CCS(=O)(=O)C1 (configuration not stated)	inactive: -6.42%
COc1cccc(CNc2nc3ccccc3n2CCN2CCCCC2)c1	inconclusive: -66.2%
O=C(NCc1ccco1)C1CCN(S(=O)(=O)N2CCC3(CC2)OCCO3)CC1	inconclusive: -34.6%
CCN(c1cccc(C)c1)c1ncnc2nc[nH]c12	inconclusive: -46.8%

Structure (SMILES)	activity change (PNC), negative = inhibition
O=C(Nc1ccccc1)N(CCCN1CCOCC1)Cc1cccs1	inactive: 20.6%
COc1ccccc1-c1nn2c(C3COc4ccccc4O3)nnc2s1 (configuration not stated)	inconclusive: -60.3%
Cc1cc(C)cc(NC(=S)NCc2cccn2C)c1	inactive: -1.04%
O=C(NCC1CCCO1)c1onc(CSc2cccc3ccccc23)c1C(=O)O (configuration not stated)	inactive: 27.1%
COc1cc(-c2cc(OC)c3c(C)oc(C)c3c(=O)c2)ccc1O	inconclusive: -38.5%
Cc1cc(C)cc(NS(=O)(=O)c2ccc3[nH]cc(C(=O)N4CCc5ccccc54)c(=O)c3c2)c1	inactive: -17.1%
Cc1ccc(C(=O)Nc2sc(C)c(C)c2C(=O)c2ccccc2)cc1	inactive: -27.8%
CCCCn1c(-c2csc(CC)c2)n[nH]c1=S	inconclusive: -79.2%
COc1cc(Br)cc2cc(C(=O)N3CCCCC3C)c(=O)oc12 (configuration not stated)	inactive: 0.782%
NC(=O)c1ncc(C(F)(F)F)cc1Oc1ccc(C(F)(F)F)cc1	inactive: -1.87%
CCn1c(CNc2ccc(C(=O)O)cc2)nc2ccccc21	active: -109%
COc1cc(NC(=O)COc2ccc(F)cc2)nc(OC)n1	inconclusive: -47.9%
O=C(O)c1cc(NCc2ccc(F)cc2)ccc1N1CCOCC1	inconclusive: -69.5%
CC(=O)Nc1ccc(NS(=O)(=O)c2cc(C)sc2C)cc1	inconclusive: -37.2%
O=S(=O)(c1ccc(Cl)nc1)N1CCCc2ccccc21	inconclusive: -50.2%
CCC(CC)C(=O)NCCc1ccc(S(N)(=O)=O)cc1	inconclusive: -33.7%
CCn1c(O)c(N=NC(=O)CNC(=O)/C=C/c2ccco2)c2ccccc21	active: -92.2%
O=C(C1CCCN(c2ncccn2)C1)N1CCc2ccccc21 (configuration not stated)	inconclusive: -35.6%
O=C(NC1CCCCCC1)c1ccc(CN2CCOCC2)cc1	inactive: -23.1%
CC(=O)OCCn1c(=O)c2cc3c(=O)n(CCOC(C)=O)c(=O)c3cc2c1=O	inconclusive: -36.7%
COc1ccc(OC)c(C(=O)CSc2nnnn2C)c1	inactive: -14.4%
CC(C)(C)NC(=O)C(=O)NNC(=O)c1ccccc1	inactive: 66.6%
O=C(NC1CC1)c1cc2c(s1)-c1ccccc1OC2	inconclusive: -53.3%

Structure (SMILES)	activity change (PNC), negative = inhibition
Cc1sc2cc(-c3cccc([N+](=O)[O-])c3)c(-c3cccc([N+](=O)[O-])c3)c[n+]2c1C	inconclusive: -52.6%
COC(=O)c1ccc(Cl)cc1NC(=O)/C=C/c1ccc(C)o1	active: -124%
CC(C)(C)OC(=O)N1CC2Cc3[nH]c(=O)ccc3C(C2)C1 (configuration not stated)	inactive: 18.4%
Nc1[nH]c(N=NC(=O)c2ccc(F)cc2)c2ccccc12	inconclusive: -32.2%
Cc1ccc(NC2=C(Cl)C(=O)N(C3CCCCC3)C2=O)cc1	inconclusive: -63.8%
CC(C)C(NC(=O)OC(C)(C)C)C(=O)N1CCCC1C(=O)NC(Cc1ccccc1)C(N)=O (configuration not stated)	inactive: 18%
CN1C(=O)/C(=C/c2ccccc2OCc2ccccc2F)NC1=S	inconclusive: -30.7%
c1ccc(-c2csc3nnc(SCc4ccc5c(c4)OCO5)n23)cc1	inactive: 21.2%
O=C(N/N=C/c1cc2c3c(c1O)CCCN3CCC2)c1ccccc1O	active: -113%
COc1cc(OC)cc(-c2nc(-c3ccccc3)no2)c1	inconclusive: -34.2%
Cn1c(N)c(C(=O)Nc2ccc3ccccc3c2)sc1=S	inactive: -9.77%
Cc1ccc(-c2noc(CN(C(=O)CCN3C(=O)c4ccccc4C3=O)C(C)C)n2)cc1	inconclusive: -47%
Cc1cc(C)c(C#N)c(SC2CCCCC2=O)n1 (configuration not stated)	inconclusive: -51.5%
O=C1OCCC1Sc1nc2cc(Cl)ccc2n1Cc1ccccc1 (configuration not stated)	inactive: -23.1%
O=C(c1ccco1)N1CCN(c2ncnc3c2nnn3Cc2ccccc2Cl)CC1	inactive: 347%
CCOCCCNC(=S)NCCNc1nc2ccc(C)cc2cc1C#N	inconclusive: -35.2%
COc1ccc(-c2nnc(SCC(=O)N3CCCCC3)o2)c(OC)c1	inactive: 18.8%
O=C(O)CCCN1C(=O)NC2NC(=O)NC21 (configuration not stated)	inconclusive: -55.1%
Cc1ccc(NC(=O)CCn2cccc2)cc1Cl	inconclusive: -56.2%
Cc1ccc(NC(=O)CN2C(=O)NC3(CCC(C)CC3)C2=O)c(Cl)c1 (configuration not stated)	active: -127%
COc1ccccc1N1CCN(c2ccc(-c3ccccc3)nn2)CC1	inconclusive: -73.5%
COc1ccc(-n2c(SCC(=O)Nc3sc4c(c3C#N)CCCC4)nnc2-c2ccc(O)cc2)cc1	inconclusive: -35.8%
CS(=O)(=O)c1ccc(Cl)c(NC(=O)c2cccc(Br)c2)c1	inactive: 14.1%

Structure (SMILES)	activity change (PNC), negative = inhibition
O=C(Oc1ccc(Cl)c2ccccc12)N1CCCCC1	inconclusive: -55.2%
Cc1ccc(-n2nc3c(c2NC(=O)C(C)(C)C)CSC3)c(C)c1	inconclusive: -31.2%
C/C(=C\C(=S)Nc1ccccc1)Nc1ccccc1	inconclusive: -52.3%
Cc1ccc(C(=O)NN2C(=O)/C(=C/c3cn(C)c4ccccc34)SC2=S)cc1	inactive: 28.5%
O=C(O)c1ccccc1C(=O)N(Cc1ccccc1)Cc1ccccc1	inactive: 15.1%
c1ccc(CN2CCN(C3=Nc4cccc5cccc3c45)CC2)cc1	inactive: -10.4%
Cc1cc(N/N=C/c2ccc(Cl)cc2Cl)nc(NCc2ccccc2)n1	inactive: -13.9%
O=C(CSc1nc2ccccc2n1CC(=O)N1CCCC1)Nc1ccc2c(c1)OCO2	inactive: 15.8%
CCOC(=O)CNC(=O)CSc1nnc(-c2ccc(OC)cc2)n1CC	inactive: -1.17%
Cc1ccc(S(=O)(=O)Nc2ccccc2C(=O)Nc2sccc2C(=O)NN(C)C)cc1	inconclusive: -45.8%
Cn1c(=O)oc2cc(S(=O)(=O)NCc3ccccn3)ccc21	inactive: -24.3%
Cc1cc(C)n2nc(N)c(N=Nc3cccc(Cl)c3)c2n1	inconclusive: -42.2%
Cc1cc(S(=O)(=O)N2CCC(N3CCCCC3)CC2)ccc1-n1cnnn1	inactive: -29.7%
CCOC(=O)C1CCCCN1Cc1cc(OC)ccc1OC (configuration not stated)	inactive: 20.8%
COc1ccc(NC(=O)c2cccnc2Sc2ccccc2)c(OC)c1	inactive: 53.7%
COC(=O)c1ccccc1NC(=O)N1c2ccccc2CC1C (configuration not stated)	inconclusive: -61.5%
Cc1ccc(NC(=O)c2cc(C)n(-c3cccc(C)c3)c2C)cc1	inconclusive: -47.2%
CCC(=O)c1cc2c(C)cc(=O)oc2c(C)c1OC	inconclusive: -41.5%
O=[N+]([O-])c1ccc(N2CCN(S(=O)(=O)c3ccccc3)CC2)cc1N1CCc2ccccc2C1	inconclusive: -37.9%
O=C(COc1ccc(Cl)cc1)N1CCN(C(=O)c2cccc(F)c2)CC1	inactive: 36%
CCn1c(SCC(=O)c2[nH]c(C)c(C(C)=O)c2C)nnc1-c1ccccc1	inconclusive: -34.5%
CCC(C)(C)NC(=O)c1cc([N+](=O)[O-])ccc1N1CCCCC1	inconclusive: -52.3%
Cc1nn(-c2ccccc2)nc1CNC(=O)C(C)Cc1ccccc1 (configuration not stated)	inconclusive: -36.8%
